Reference: PubChem BioAssay AID743454 (Peter MacCallum Cancer Centre, 2014)
Here is an unselected part of about 18,000 deposited reagents. 450 of them (2.5%) were called active. 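Single biological run; no consistent viability z cut-off exists, so the class columns, not z-scores, define the calls.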 No sequences are given here.

Screen: 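Genes whose loss kills vorinostat-resistant colon cancer cells under vorinostat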 (primary screen)
Cell system: human HCT116-VR colon cancer cells, selected for vorinostat resistance
Reagent: siRNA pool against human genes, 40 nM siRNA pool
Duration: vorinostat for 24 h, read-out about 72 h after transfection
Treatment: vorinostat at 2.5 µM final
Detection: 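Two measures, CellTiter-Fluor viability and luminescent caspase 3/7 activity, each as fold change against same-plate mock wells, mean of duplicates, then screen-wide robust z-score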
Reading the numbers: viability robust z-score: higher = more viable cells than screen typical; caspase robust z-score: higher = more caspase 3/7 activity than screen typical
Active means: 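Hits are knock-downs in viability class RV1/RV2 or caspase class CA1/CA2, excluding ones that killed cells in the no-drug cell-count arm; hits then retested with single siRNAs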

| gene | viability hit class | caspase hit class | viability robust z-score | caspase robust z-score | outcome |
| --- | --- | --- | --- | --- | --- |
| CRLF3 (GeneID 51379) | no change | no change | 0.72 | -0.73 | inactive |
| OR1K1 (GeneID 392392) | no change | no change | 0.99 | 0.2 | inactive |
| ABLIM2 (GeneID 84448) | no change | no change | -1 | 1.52 | inactive |
| EDC3 (GeneID 80153) | no change | no change | -2.27 | 0.5 | inactive |
| XG (GeneID 7499) | no change | no change | 0.29 | -0.32 | inactive |
| ABCB8 (GeneID 11194) | no change | no change | -0.44 | 0.91 | inactive |
| ROGDI (GeneID 79641) | no change | no change | 0 | -0.31 | inactive |
| COL9A1 (GeneID 1297) | no change | CA2 (caspase activation) | -2.61 | 6.86 | active |
| GUCY2F (GeneID 2986) | no change | no change | 1.46 | -0.66 | inactive |
| RFX7 (GeneID 64864) | no change | no change | 0.16 | -0.1 | inactive |
| RABL2B (GeneID 11158) | no change | no change | -0.4 | 1.23 | inactive |
| SPG7 (GeneID 6687) | no change | no change | -1.37 | 0.72 | inactive |
| RNF187 (GeneID 149603) | no change | no change | 0.98 | -0.3 | inactive |

Continued; the last 5 above are carried over.
| gene | viability hit class | caspase hit class | viability robust z-score | caspase robust z-score | outcome |
| --- | --- | --- | --- | --- | --- |
| GUCY2F (GeneID 2986) | no change | no change | 1.46 | -0.66 | inactive |
| RFX7 (GeneID 64864) | no change | no change | 0.16 | -0.1 | inactive |
| RABL2B (GeneID 11158) | no change | no change | -0.4 | 1.23 | inactive |
| SPG7 (GeneID 6687) | no change | no change | -1.37 | 0.72 | inactive |
| RNF187 (GeneID 149603) | no change | no change | 0.98 | -0.3 | inactive |
| LYPLAL1 (GeneID 127018) | no change | no change | 0.02 | -0.3 | inactive |
| ZNF816 (GeneID 125893) | no change | no change | 1.94 | -0.34 | inactive |
| KIF19 (GeneID 124602) | no change | no change | 0.45 | 1.4 | inactive |
| ZFY (GeneID 7544) | no change | no change | -0.57 | 0.16 | inactive |
| TCF15 (GeneID 6939) | no change | no change | 0.73 | -0.28 | inactive |
| RPL19 (GeneID 6143) | no change | no change | -3.8 | -0.78 | inactive |
| NRN1 (GeneID 51299) | no change | no change | 0.08 | 1.08 | inactive |
| CMPK2 (GeneID 129607) | no change | no change | 0.34 | -0.57 | inactive |
| SERINC1 (GeneID 57515) | no change | no change | -0.05 | -0.45 | inactive |
| MBD5 (GeneID 55777) | no change | no change | 0.11 | 0.12 | inactive |
| ADPRH (GeneID 141) | no change | no change | 0.82 | -0.4 | inactive |
| FAM222A (GeneID 84915) | no change | no change | -1.63 | 0.86 | inactive |
| FIRRM (GeneID 55732) | no change | no change | -1.2 | -0.7 | inactive |
| B3GALT1 (GeneID 8708) | no change | no change | -0.46 | -0.31 | inactive |
| PJA1 (GeneID 64219) | no change | no change | 1.4 | -0.63 | inactive |
| UCKL1 (GeneID 54963) | no change | no change | -0.52 | -0.9 | inactive |
| TADA1 (GeneID 117143) | no change | no change | 0.55 | -0.57 | inactive |
| TP53INP1 (GeneID 94241) | no change | no change | 0.55 | 2.16 | inactive |
| HMGB1P1 (GeneID 10357) | no change | no change | 1.2 | -0.18 | inactive |
| MMS22L (GeneID 253714) | no change | no change | -0.02 | -0.04 | inactive |
| CAGE1 (GeneID 285782) | no change | no change | 0.39 | -0.03 | inactive |
| SOX6 (GeneID 55553) | no change | no change | -0.56 | -0.6 | inactive |
| EIF5A (GeneID 1984) | no change | no change | -0.88 | -1.16 | inactive |
| SNRPF (GeneID 6636) | no change | no change | -3.26 | -0.6 | inactive |
| SLC36A2 (GeneID 153201) | no change | no change | 0.04 | 0.92 | inactive |
| CDH4 (GeneID 1002) | no change | no change | -0.05 | 1.2 | inactive |
